Measured values as given in PMC8911819.
The exact form of at least one protein or probe is not confirmed. For some of these results: At least one result comes from cells or an extract, where the contact may be indirect.

Sequences of proteins named here, by UniProt entry; tags and fusion partners are left off. Residues count along the entry.
UniProt Q9EP73, 19-239: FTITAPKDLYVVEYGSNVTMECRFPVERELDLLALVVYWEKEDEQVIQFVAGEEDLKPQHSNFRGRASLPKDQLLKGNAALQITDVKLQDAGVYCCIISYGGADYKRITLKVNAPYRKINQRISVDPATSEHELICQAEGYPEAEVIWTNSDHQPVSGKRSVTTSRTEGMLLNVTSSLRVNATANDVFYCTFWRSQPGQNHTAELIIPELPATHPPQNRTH
UniProt Q9EP73, 19-290: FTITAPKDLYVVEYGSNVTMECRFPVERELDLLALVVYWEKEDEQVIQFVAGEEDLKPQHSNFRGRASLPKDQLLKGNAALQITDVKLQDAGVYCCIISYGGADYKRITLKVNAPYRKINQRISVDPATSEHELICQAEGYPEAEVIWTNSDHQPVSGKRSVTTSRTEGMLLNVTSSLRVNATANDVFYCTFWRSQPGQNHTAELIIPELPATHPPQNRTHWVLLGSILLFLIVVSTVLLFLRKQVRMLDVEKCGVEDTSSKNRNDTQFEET

Columns and labels:
[1] = target: PD-L1 (murine) (mouse) (UniProt Q9EP73); experiment: binding assay; settings: Flow cytometry: 2x10^5 CT26 cells, 60 pmol FAM-labeled ligand in 300 uL PBS, 30 min, room temperature, two PBS washes; pH not stated for binding; single-stranded DNA
[2] = target: PD-L1 (human) (human) (UniProt Q9NZQ7); experiment: binding assay; settings: Flow cytometry: 2x10^5 CT26 cells, 60 pmol FAM-labeled ligand in 300 uL PBS, 30 min, room temperature, two PBS washes; pH not stated for binding; single-stranded DNA
[3] = target: PD-L1 on CT26 cells (mouse (CT26 colon cancer cell line)) (UniProt Q9EP73); experiment: flow cytometry; confocal microscopy; settings: Flow cytometry: 2x10^5 CT26 cells, 60 pmol FAM-labeled ligand in 300 uL PBS, 30 min, room temperature, two PBS washes, pH not stated for binding, protein on the cell surface, single-stranded DNA

ACGGGCCACATCAACTCATTGATAGACAATGCGTCCACTGCCCGT [PD-L1 aptamer (core, without T6 linker)]
Kd [1]: 72 nM
Kd [2]: 4.7 nM

TTTTTTACGGGCCACATCAACTCATTGATAGACAATGCGTCCACTGCCCGT [BSA-Apt]
binding result ([3]; 60 pmol in 300 uL, 2.5:1 aptamer:BSA (flow), 5'-SH conjugated to BSA amino group via sulfo-SMCC): binds

TTTTTTACGGGCCACATCAACTCATTGATAGACAATGCGTCCACTGCCCGT [free PD-L1 aptamer]
binding result ([3]; 60 pmol in 300 uL (flow), 5'-SH): binds
